# Data reported in article PMC7819943, “Rice protein-binding microarrays: a tool to detect cis-acting elements near promoter regions in rice”.
# This is one part of the list.
# Molecular target: T1, OsSMF1 (Oryza sativa, UniProt Q6ZLB0 1-436)
# T1 sequence: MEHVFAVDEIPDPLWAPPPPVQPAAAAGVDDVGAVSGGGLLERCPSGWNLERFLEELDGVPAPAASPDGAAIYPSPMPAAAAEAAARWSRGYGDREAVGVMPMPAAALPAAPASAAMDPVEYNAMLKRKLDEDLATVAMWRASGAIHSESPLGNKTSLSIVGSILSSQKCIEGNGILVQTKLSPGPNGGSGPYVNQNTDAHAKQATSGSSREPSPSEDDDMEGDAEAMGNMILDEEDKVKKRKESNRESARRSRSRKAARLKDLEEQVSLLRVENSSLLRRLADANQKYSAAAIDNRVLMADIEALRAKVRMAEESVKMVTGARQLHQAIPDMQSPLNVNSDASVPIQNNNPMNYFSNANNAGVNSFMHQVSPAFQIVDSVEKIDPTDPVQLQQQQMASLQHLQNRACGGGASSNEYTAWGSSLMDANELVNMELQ
# Assay: protein-binding microarray (RPBM); PBS, 2% BSA, 51.3 ng/ul salmon testes DNA, 50 uM zinc acetate, 200 nM TF, 25 C, 1 h; high values mean tight binding
# Details: protein: recombinant; tags: N-terminal polyhistidine and DsRed monomer fusion (pET32a); chain copies: 2; label: CyDye5-dUTP incorporated in the synthesized complementary strand; 3' TTTTT single-stranded linker to array surface; dsDNA, one strand shown
# Procedure, shortened: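 The binding signal for each feature is its fluorescence intensity in arbitrary units. An Axon 4000B scanner was used to read a custom Agilent array that had been made double-stranded with Cy5-dUTP primer extension, blocked with 2% BSA, incubated at 25 °C for 1 h with 200 nM protein in PBS, 2% BSA, salmon testes DNA and 50 µM zinc acetate, and washed. The protein was an N-terminal polyhistidine–DsRed transcription factor fusion from E. coli BL21-CodonPlus, purified on Ni–NTA.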
row,Sequence,binding signal
1,GCGACGGCGCTGGCCCGATGGATAGCAGGTGTGACGCGCCCGGAGTCACCTAGTGCAG,3620 fluorescence intensity (a.u.)
2,ACACAGTAACACGTAAGGCCTCCTTGTATGGGCCTCAATCCGGAGTCACCTAGTGCAG,4430 fluorescence intensity (a.u.)
3,AACGTCAAGTACTCACGTGGTCCACGAATATTTAAGCCTACGGAGTCACCTAGTGCAG,4480 fluorescence intensity (a.u.)
4,TATATATAACAGAAATTTGACATGTGGCTCTATCTTATACCGGAGTCACCTAGTGCAG,4760 fluorescence intensity (a.u.)
5,CCGGCCTCACGGCTCACCTGACCTGTCACCTGAATCACCTCGGAGTCACCTAGTGCAG,6440 fluorescence intensity (a.u.)
6,CGACATCGGCCAGAAGCTCACCATGATGTTCTACGAGCGCCGGAGTCACCTAGTGCAG,3280 fluorescence intensity (a.u.)
7,GTATAATATGTGTCGGTAATCTGTAGACTGGCTGACTGGGCGGAGTCACCTAGTGCAG,6040 fluorescence intensity (a.u.)
8,TTTGATGATGTGGCGAGCTAATTCTCAGCTATTCCCACGGCGGAGTCACCTAGTGCAG,8480 fluorescence intensity (a.u.)
9,AAAGATTAATCCATCCAGGCACGCAGGATCCGAGTCAGTCCGGAGTCACCTAGTGCAG,4430 fluorescence intensity (a.u.)
10,ACTGGCCATGCTGCTTAACGCTGATCCATGGTGACTTGGCCGGAGTCACCTAGTGCAG,6050 fluorescence intensity (a.u.)
11,GAAAATAAAAGGAAACGTCACACGCAGCTCCGCCGCAACCCGGAGTCACCTAGTGCAG,3570 fluorescence intensity (a.u.)
12,AGGTGAGGCGAGGCGGTTACGCTGGCAGCACTCATCTCGTCGGAGTCACCTAGTGCAG,3240 fluorescence intensity (a.u.)
13,CAACCACCAACTCCACACGCTGTTCATGTCACGACGGTTTCGGAGTCACCTAGTGCAG,3290 fluorescence intensity (a.u.)
14,AGGGGTGATGTTTCGGAGTTTGGTGGCATCATCATCATCCCGGAGTCACCTAGTGCAG,3540 fluorescence intensity (a.u.)
15,CCACAGTCGCTTGCCGACGAGCTTGAAGCCTCAACGACATCGGAGTCACCTAGTGCAG,4790 fluorescence intensity (a.u.)
16,ACAGCCGTACCCCACATACACCCTCTGCTCATGCCCTGCCCGGAGTCACCTAGTGCAG,3240 fluorescence intensity (a.u.)
17,CCATTTCGAACAAATTGTAAAGAATCTGACGTTTTATTTCCGGAGTCACCTAGTGCAG,3870 fluorescence intensity (a.u.)
18,TAACAGGGAGGCGTATTTCATAGCGAACGTGACACGCAGACGGAGTCACCTAGTGCAG,3140 fluorescence intensity (a.u.)
19,GGTGGGCCGTAGCCCACGTGGGCCCAATTGACAAGGTGGGCGGAGTCACCTAGTGCAG,4380 fluorescence intensity (a.u.)
20,TATCCTTTTCCGGCTACGTGTTGATTTTGCTCGTTTGTTCCGGAGTCACCTAGTGCAG,3580 fluorescence intensity (a.u.)
21,TCCAATGTTCGTCTGCGGCATCACCATGCACCATGGATCCCGGAGTCACCTAGTGCAG,3500 fluorescence intensity (a.u.)

row,Sequence,binding signal
1,GCCGGGACGACCACGTTCCTCACCATGGCCTACATCCTCGCGGAGTCACCTAGTGCAG,37500 fluorescence intensity (a.u.)
2,CGTTCTCATGCGGCATCCGTTTGTACGACCAGGGCCCATCCGGAGTCACCTAGTGCAG,3250 fluorescence intensity (a.u.)
3,AGAGAGGCATCTAGCGCGTGCACACATCAGCAGCAGGCAACGGAGTCACCTAGTGCAG,5920 fluorescence intensity (a.u.)
4,GCCAACCGCTTCAGTGTCAGTCACTCACAACCCAGTGATGCGGAGTCACCTAGTGCAG,3430 fluorescence intensity (a.u.)
5,AGTTGCGTGACAACTAATAAAATACTAACACAATGTCTTACGGAGTCACCTAGTGCAG,4060 fluorescence intensity (a.u.)
6,GTCCGATCGGACGCACCACGCATCCTAGCCGTCCACGCCACGGAGTCACCTAGTGCAG,3180 fluorescence intensity (a.u.)
7,TTATTTTATATACTGCCCTGCTCTTCTCTAAACAGCAGAGCGGAGTCACCTAGTGCAG,19000 fluorescence intensity (a.u.)
8,TCCTCCACCATGCGGGCCCCACACATATCCGGTTTCTTCTCGGAGTCACCTAGTGCAG,3640 fluorescence intensity (a.u.)
9,GAAACCCTCTTCTGGTTTCTTGCTCCACGGCGGCGGTTTGCGGAGTCACCTAGTGCAG,3640 fluorescence intensity (a.u.)
10,CATCGGCTAGATTTATTATCGATACGTCATCGGCTCATCACGGAGTCACCTAGTGCAG,7110 fluorescence intensity (a.u.)
11,GTTTGATTATGTGGTCTGCATGTGCCTAGTTTGACATCAGCGGAGTCACCTAGTGCAG,4580 fluorescence intensity (a.u.)
12,ATTGTGTACAGTTGATGTCATGTGTTGTCCCAATAGCAAACGGAGTCACCTAGTGCAG,5500 fluorescence intensity (a.u.)
13,GCGCGGAGCAGCTGCAGGGTCCACGTGATGCCGCGCCGTGCGGAGTCACCTAGTGCAG,4200 fluorescence intensity (a.u.)
14,GCGAGTGAACTAAATCATGCAACCGTATTGCTGACCAGACCGGAGTCACCTAGTGCAG,3400 fluorescence intensity (a.u.)
15,GGACTATAAGCTAACCACGCCACGCCGATATCACTGTTCCCGGAGTCACCTAGTGCAG,3710 fluorescence intensity (a.u.)
16,TATTTATTATATCCCCACCATGGAGCATCAGTCATCTTGTCGGAGTCACCTAGTGCAG,3430 fluorescence intensity (a.u.)
17,CGCGCGCTCGCGCGCTCGTGCCTTCCTCGTCACGACACCCCGGAGTCACCTAGTGCAG,3280 fluorescence intensity (a.u.)
18,GACTCGTCGAAACGGTGCAGACGGGGAGAGCCGAGCCAGTCGGAGTCACCTAGTGCAG,3370 fluorescence intensity (a.u.)
19,AAAATGTGCCAAGTCTGACCGCGTCTTAGTGAAGTACTTACGGAGTCACCTAGTGCAG,3280 fluorescence intensity (a.u.)
20,GCAGTCTCTAGTCTGTACAGGAGAGTTGCTTACCGTAGCCCGGAGTCACCTAGTGCAG,23600 fluorescence intensity (a.u.)
21,ACGCGGATCGGACGGCTCAGATGCAGCGCCACGACGATCGCGGAGTCACCTAGTGCAG,3390 fluorescence intensity (a.u.)

# In a second layout: results already given.
row | Sequence | binding signal
2 | CGTTCTCATGCGGCATCCGTTTGTACGACCAGGGCCCATCCGGAGTCACCTAGTGCAG | 3250 fluorescence intensity (a.u.)
3 | AGAGAGGCATCTAGCGCGTGCACACATCAGCAGCAGGCAACGGAGTCACCTAGTGCAG | 5920 fluorescence intensity (a.u.)
5 | AGTTGCGTGACAACTAATAAAATACTAACACAATGTCTTACGGAGTCACCTAGTGCAG | 4060 fluorescence intensity (a.u.)
7 | TTATTTTATATACTGCCCTGCTCTTCTCTAAACAGCAGAGCGGAGTCACCTAGTGCAG | 19000 fluorescence intensity (a.u.)
8 | TCCTCCACCATGCGGGCCCCACACATATCCGGTTTCTTCTCGGAGTCACCTAGTGCAG | 3640 fluorescence intensity (a.u.)
11 | GTTTGATTATGTGGTCTGCATGTGCCTAGTTTGACATCAGCGGAGTCACCTAGTGCAG | 4580 fluorescence intensity (a.u.)
12 | ATTGTGTACAGTTGATGTCATGTGTTGTCCCAATAGCAAACGGAGTCACCTAGTGCAG | 5500 fluorescence intensity (a.u.)
17 | CGCGCGCTCGCGCGCTCGTGCCTTCCTCGTCACGACACCCCGGAGTCACCTAGTGCAG | 3280 fluorescence intensity (a.u.)
18 | GACTCGTCGAAACGGTGCAGACGGGGAGAGCCGAGCCAGTCGGAGTCACCTAGTGCAG | 3370 fluorescence intensity (a.u.)
19 | AAAATGTGCCAAGTCTGACCGCGTCTTAGTGAAGTACTTACGGAGTCACCTAGTGCAG | 3280 fluorescence intensity (a.u.)
21 | ACGCGGATCGGACGGCTCAGATGCAGCGCCACGACGATCGCGGAGTCACCTAGTGCAG | 3390 fluorescence intensity (a.u.)
